# PubChem BioAssay AID1224826 | NIAID – 2016
# Screen: 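Knock-downs that raise or lower Tnf reporter signal after endotoxin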 (primary screen)
# Cell system: RAW264.7 G9 macrophages from mouse bearing reporters for p65 (GFP) and the Tnf promoter (mCherry)
# Reagent: siRNA pool against mouse genes, 100 nM
# Timing: 16 h of LPS stimulation, after 2 days of siRNA transfection
# Treatment: bacterial lipopolysaccharide (Salmonella minnesota R595), 10 ng/ml
# Read-out: 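Nuclear mCherry signal of the Tnf promoter reporter measured by imaging after background removal, scaled to each plate median and turned into robust z-scores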
# Scale: Tnf reporter robust z-score: higher = stronger Tnf promoter reporter signal after LPS
# Hit rule: 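Called active when robust z-score is at most -1.3, matching the median of the Tlr4 knock-down control, or over 3; control wells and wells with under 50 cells never active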
# Meaning of the calls: active = Tnf reporter clearly lowered or raised; inactive = no clear change in Tnf reporter
# This is a random part of about 17,000 reagents. Over the whole deposit, about 1,110 (6.6%) are marked active. 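Active means lowered or raised reporter signal; replicate intensities are raw and not normalised per plate.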 Reagents against one gene are numbered here. Further read-outs or replicates are left out here.
target,pool no.,Tnf reporter robust z-score,fewer than 50 cells in well,call
Akap10,1,0.28,enough cells in well,inactive
Ttyh3,1,2.04,enough cells in well,inactive
Rap2a,1,,fewer than 50 cells per well; well left out of calls,inactive
Or5b112,1,1.43,enough cells in well,inactive
Rarg,1,0.43,enough cells in well,inactive
Dclk1,1,-0.93,enough cells in well,inactive
Baz1b,1,-0.54,enough cells in well,inactive
Wdr54,1,0.03,enough cells in well,inactive
Phlda2,1,-0.16,enough cells in well,inactive
Trim9,1,-0.26,enough cells in well,inactive
Trim9,2,1.33,enough cells in well,inactive
Podxl,1,,fewer than 50 cells per well; well left out of calls,inactive
Pigl,1,2.79,enough cells in well,inactive
Cxcr1,1,0.69,enough cells in well,inactive
Katna1,1,-0.1,enough cells in well,inactive
1700129L13RIK,1,-1.41,enough cells in well,active
Gnrhr,1,-0.52,enough cells in well,inactive
Itch,1,0.9,enough cells in well,inactive
Apool,1,-0.49,enough cells in well,inactive
Dusp8,1,0.67,enough cells in well,inactive
Scrn2,1,0.35,enough cells in well,inactive
Vmn1r-ps103,1,0.44,enough cells in well,inactive
Polr1c,1,3.73,enough cells in well,active
Slc25a37,1,1.51,enough cells in well,inactive
Kcnip3,1,0.24,enough cells in well,inactive
Rimkla,1,1.72,enough cells in well,inactive
Cyp2j5,1,0.37,enough cells in well,inactive
Ifi209,1,1.75,enough cells in well,inactive
Magea2,1,1.77,enough cells in well,inactive
Pde3b,1,-0.45,enough cells in well,inactive
Sp8,1,1.03,enough cells in well,inactive
Ccdc126,1,,fewer than 50 cells per well; well left out of calls,inactive
Grwd1,1,1.8,enough cells in well,inactive
Sf3a2,1,-0.85,enough cells in well,inactive
Vcam1,1,0,enough cells in well,inactive
Or2ag12,1,0.52,enough cells in well,inactive
Or8b36,1,1.32,enough cells in well,inactive
Axl,1,0.37,enough cells in well,inactive
Rgl3,1,1.15,enough cells in well,inactive
Ccdc142,1,1.24,enough cells in well,inactive
Slit1,1,-0.93,enough cells in well,inactive
Or6c211,1,,fewer than 50 cells per well; well left out of calls,inactive
Dido1,1,2.56,enough cells in well,inactive
Dido1,2,0.39,enough cells in well,inactive
Mab21l3,1,-0.25,enough cells in well,inactive
Grep1,1,-1.06,enough cells in well,inactive
Vps33b,1,-0.75,enough cells in well,inactive
Rdh19,1,-0.43,enough cells in well,inactive
Pfn2,1,-0.32,enough cells in well,inactive
Tbc1d10c,1,,fewer than 50 cells per well; well left out of calls,inactive
4933436I01Rik,1,-1.09,enough cells in well,inactive
Or51ac3,1,4.01,enough cells in well,active
Zfp358,1,0.66,enough cells in well,inactive
Psma6,1,,fewer than 50 cells per well; well left out of calls,inactive
Sms,1,0.47,enough cells in well,inactive
Spic,1,-0.68,enough cells in well,inactive
Vps33a,1,-0.78,enough cells in well,inactive
Aen,1,-0.52,enough cells in well,inactive

3 entries from above, arranged by “Tnf reporter robust z-score”, descending.
target,pool no.,Tnf reporter robust z-score,fewer than 50 cells in well,call
Or8b36,1,1.32,enough cells in well,inactive
Or2ag12,1,0.52,enough cells in well,inactive
Axl,1,0.37,enough cells in well,inactive
